Test results as given in paper doi:10.64898/2025.12.16.694471.
Where two headings read alike, the source gives them in different places. These are yes or no findings as the source states them, for the method shown. Binding seen in cells or lysates may run through a third protein. A yes stands for co-enrichment or nearness to the bait. Other partners may have been found. For part of these data: Tags and fused reporters may be left off the sequences shown.

Amino acid sequences for entries named in this document (tags omitted). A change or cut given only in a name is not applied to a line headed by its entry.
UniProt Q9Y134: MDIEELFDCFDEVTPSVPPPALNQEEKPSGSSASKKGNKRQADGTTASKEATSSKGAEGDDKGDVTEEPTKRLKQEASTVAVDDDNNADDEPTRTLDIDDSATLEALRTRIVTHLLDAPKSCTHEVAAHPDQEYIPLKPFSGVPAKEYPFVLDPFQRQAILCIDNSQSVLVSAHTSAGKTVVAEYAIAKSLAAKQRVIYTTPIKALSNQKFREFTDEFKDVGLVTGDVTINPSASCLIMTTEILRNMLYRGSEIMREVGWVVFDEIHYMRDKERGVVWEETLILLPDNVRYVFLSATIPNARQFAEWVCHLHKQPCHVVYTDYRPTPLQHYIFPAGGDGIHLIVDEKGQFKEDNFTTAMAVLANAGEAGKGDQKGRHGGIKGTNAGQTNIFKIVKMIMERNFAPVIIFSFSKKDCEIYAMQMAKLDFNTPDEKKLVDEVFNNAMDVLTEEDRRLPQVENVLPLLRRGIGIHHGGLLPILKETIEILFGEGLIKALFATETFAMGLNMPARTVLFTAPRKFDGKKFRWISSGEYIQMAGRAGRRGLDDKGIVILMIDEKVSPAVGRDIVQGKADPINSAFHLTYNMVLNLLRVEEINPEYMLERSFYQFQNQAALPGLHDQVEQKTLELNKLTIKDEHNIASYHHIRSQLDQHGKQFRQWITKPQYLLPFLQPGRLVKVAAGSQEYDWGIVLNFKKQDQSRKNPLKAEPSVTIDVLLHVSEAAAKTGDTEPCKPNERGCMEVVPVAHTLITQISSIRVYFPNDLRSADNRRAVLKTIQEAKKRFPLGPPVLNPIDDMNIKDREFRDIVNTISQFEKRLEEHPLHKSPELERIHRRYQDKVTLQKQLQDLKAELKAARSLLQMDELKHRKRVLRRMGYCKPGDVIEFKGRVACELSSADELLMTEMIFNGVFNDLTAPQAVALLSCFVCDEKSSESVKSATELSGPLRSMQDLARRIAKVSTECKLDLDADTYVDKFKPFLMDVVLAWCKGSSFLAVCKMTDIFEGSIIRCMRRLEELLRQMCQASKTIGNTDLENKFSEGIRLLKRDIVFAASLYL
UniProt Q8SWX0: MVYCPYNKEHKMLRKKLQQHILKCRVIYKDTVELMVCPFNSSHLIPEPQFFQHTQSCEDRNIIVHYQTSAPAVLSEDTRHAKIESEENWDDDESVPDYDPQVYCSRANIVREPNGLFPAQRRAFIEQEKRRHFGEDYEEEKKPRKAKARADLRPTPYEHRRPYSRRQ
UniProt Q9W3W6: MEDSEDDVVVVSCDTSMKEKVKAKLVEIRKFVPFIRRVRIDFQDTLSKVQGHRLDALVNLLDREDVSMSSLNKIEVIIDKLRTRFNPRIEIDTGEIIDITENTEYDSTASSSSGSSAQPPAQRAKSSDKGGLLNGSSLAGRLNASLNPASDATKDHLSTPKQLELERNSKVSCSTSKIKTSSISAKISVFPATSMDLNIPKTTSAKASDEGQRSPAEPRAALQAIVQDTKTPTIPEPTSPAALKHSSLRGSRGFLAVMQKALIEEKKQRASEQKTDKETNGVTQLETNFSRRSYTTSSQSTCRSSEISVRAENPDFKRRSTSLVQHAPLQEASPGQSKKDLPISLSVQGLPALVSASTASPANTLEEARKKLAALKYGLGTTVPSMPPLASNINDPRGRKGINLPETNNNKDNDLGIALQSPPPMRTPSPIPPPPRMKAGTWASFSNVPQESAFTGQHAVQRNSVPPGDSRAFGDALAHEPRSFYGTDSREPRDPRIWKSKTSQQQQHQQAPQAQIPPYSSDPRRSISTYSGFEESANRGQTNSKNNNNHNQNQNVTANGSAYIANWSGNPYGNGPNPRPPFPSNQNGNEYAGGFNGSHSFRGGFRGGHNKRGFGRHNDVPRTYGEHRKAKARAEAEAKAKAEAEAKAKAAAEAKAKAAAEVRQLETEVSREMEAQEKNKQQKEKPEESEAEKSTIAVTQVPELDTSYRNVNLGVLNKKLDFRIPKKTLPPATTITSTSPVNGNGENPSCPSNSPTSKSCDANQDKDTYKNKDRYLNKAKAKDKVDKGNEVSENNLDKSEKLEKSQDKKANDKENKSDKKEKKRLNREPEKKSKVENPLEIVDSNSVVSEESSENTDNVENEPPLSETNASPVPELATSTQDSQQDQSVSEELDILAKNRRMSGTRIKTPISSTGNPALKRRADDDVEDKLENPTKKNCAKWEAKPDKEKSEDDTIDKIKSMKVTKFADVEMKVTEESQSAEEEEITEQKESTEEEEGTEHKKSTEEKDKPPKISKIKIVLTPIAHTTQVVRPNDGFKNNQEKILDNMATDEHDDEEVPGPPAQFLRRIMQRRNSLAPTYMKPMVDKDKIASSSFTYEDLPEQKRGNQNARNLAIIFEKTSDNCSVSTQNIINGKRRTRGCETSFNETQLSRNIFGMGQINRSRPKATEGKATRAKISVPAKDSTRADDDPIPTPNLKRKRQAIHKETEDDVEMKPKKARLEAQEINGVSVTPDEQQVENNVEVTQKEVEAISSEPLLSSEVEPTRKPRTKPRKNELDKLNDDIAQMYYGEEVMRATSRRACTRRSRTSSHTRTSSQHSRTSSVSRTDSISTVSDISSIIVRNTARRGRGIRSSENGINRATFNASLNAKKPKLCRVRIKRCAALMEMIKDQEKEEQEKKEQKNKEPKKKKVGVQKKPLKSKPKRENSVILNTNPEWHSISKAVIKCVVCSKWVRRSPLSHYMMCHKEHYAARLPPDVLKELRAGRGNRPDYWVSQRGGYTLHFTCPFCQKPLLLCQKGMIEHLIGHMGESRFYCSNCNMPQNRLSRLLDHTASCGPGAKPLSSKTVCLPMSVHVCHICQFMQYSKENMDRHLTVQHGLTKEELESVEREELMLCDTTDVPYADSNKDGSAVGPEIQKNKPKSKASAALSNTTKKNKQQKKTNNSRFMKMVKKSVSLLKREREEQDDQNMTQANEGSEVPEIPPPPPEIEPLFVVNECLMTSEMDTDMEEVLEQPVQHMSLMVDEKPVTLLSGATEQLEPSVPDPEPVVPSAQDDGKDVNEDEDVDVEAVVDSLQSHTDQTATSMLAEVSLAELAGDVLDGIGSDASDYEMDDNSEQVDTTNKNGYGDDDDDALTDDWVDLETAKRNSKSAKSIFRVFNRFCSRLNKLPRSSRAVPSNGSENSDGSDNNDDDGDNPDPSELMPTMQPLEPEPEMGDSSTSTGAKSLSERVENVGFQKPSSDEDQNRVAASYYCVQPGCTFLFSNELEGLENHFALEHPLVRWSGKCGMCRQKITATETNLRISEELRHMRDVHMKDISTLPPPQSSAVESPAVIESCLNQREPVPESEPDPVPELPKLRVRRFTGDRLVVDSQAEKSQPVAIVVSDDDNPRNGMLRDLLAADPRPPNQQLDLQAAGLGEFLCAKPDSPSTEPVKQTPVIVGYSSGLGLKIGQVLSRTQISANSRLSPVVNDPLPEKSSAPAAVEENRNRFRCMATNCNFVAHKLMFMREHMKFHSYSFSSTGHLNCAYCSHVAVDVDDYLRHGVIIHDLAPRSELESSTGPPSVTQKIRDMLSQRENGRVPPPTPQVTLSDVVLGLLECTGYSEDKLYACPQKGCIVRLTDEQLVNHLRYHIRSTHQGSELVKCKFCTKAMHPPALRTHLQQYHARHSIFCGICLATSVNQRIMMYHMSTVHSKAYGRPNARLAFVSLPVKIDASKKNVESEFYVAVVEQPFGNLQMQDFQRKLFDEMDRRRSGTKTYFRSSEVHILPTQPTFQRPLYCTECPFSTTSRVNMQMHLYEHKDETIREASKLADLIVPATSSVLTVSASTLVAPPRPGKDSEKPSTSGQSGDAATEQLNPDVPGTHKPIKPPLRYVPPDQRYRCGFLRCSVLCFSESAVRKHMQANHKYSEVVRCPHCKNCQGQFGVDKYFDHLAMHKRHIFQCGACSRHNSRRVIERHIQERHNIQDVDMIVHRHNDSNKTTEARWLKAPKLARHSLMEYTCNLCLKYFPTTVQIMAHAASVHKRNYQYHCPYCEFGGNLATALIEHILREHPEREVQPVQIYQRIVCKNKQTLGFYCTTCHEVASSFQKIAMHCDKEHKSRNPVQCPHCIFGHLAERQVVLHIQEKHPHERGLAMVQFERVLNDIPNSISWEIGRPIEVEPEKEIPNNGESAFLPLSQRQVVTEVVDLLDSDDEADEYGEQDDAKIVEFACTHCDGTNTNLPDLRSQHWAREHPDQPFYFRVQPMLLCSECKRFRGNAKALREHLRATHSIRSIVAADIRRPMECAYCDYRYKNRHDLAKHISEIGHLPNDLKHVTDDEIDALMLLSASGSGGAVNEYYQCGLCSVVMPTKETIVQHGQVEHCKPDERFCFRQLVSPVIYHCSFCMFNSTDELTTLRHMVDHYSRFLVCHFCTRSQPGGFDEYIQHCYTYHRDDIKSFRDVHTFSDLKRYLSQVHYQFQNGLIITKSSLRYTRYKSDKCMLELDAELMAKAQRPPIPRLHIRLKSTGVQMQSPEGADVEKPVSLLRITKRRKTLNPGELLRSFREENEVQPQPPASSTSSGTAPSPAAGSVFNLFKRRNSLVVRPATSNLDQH

Assays:
[1] = molecular target: Mtr4-dTAG-V5-3xFLAG (Drosophila melanogaster (endogenous in OSCs)) (UniProt Q9Y134); experiment: affinity purification with mass spectrometry
[2] = molecular target: T1, dZcchc8-GFP-V5-3xFLAG (Drosophila melanogaster (endogenous in OSCs)) (UniProt Q2PE14); experiment: affinity purification with mass spectrometry
T1 sequence: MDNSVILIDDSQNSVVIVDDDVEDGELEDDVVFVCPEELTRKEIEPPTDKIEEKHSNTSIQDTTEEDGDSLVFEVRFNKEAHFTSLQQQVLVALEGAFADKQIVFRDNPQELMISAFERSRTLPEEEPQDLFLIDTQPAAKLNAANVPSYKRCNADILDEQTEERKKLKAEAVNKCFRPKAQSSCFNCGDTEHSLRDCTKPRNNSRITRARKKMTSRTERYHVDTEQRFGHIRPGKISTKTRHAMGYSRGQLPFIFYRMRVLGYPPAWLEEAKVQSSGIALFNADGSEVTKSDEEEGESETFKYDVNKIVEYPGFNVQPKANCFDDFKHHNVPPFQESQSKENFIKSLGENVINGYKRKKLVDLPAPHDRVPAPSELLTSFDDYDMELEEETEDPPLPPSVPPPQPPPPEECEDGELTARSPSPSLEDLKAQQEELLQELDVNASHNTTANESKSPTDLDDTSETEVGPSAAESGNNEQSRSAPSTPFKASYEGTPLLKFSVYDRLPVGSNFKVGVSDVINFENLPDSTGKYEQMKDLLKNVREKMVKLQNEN

[3] = molecular target: 3xFLAG-V5-GFP-TEsup-1 (Drosophila melanogaster (endogenous in OSCs)) (UniProt Q9VBX4); experiment: affinity purification with mass spectrometry
[4] = molecular target: T2, 3xFLAG-V5-GFP-TEsup-2 (Drosophila melanogaster (endogenous in OSCs)) (UniProt Q7YZA2); experiment: affinity purification with mass spectrometry
T2 sequence: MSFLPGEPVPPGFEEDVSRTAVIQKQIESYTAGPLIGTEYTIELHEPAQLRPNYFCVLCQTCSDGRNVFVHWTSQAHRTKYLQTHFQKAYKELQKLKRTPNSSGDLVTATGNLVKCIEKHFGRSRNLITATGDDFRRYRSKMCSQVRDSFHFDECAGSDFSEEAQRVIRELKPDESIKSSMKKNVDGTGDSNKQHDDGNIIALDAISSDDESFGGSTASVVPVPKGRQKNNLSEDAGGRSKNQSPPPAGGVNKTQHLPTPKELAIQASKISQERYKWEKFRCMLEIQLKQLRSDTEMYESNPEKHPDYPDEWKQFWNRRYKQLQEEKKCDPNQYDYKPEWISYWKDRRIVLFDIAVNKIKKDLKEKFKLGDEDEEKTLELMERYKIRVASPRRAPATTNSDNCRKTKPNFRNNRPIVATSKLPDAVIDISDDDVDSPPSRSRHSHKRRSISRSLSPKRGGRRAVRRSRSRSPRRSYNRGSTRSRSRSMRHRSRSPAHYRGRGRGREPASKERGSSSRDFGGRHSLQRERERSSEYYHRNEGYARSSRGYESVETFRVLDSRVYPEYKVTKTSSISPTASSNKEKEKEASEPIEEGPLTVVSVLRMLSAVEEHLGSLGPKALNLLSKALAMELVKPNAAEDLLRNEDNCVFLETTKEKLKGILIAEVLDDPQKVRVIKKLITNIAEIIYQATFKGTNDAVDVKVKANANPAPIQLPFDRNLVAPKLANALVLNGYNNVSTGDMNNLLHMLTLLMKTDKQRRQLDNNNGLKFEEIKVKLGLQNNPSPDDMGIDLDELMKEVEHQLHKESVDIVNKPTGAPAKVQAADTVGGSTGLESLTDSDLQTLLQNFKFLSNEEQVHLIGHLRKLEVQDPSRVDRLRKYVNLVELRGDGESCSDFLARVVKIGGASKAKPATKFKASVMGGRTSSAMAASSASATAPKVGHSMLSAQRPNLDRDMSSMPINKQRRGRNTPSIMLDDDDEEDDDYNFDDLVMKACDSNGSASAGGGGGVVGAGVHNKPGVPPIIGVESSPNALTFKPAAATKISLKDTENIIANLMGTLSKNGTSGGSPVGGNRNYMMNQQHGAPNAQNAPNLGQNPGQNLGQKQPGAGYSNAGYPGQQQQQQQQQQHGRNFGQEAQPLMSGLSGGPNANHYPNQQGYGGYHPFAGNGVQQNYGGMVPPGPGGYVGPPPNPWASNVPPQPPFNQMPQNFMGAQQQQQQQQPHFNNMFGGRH

[5] = molecular target: 3xFLAG-TurboID-TEsup-1 (Drosophila melanogaster (endogenous in OSCs)) (UniProt Q9VBX4); experiment: proximity labelling
[6] = molecular target: T3, 3xFLAG-TurboID-TEsup-2 (Drosophila melanogaster (endogenous in OSCs)) (UniProt Q7YZA2); experiment: proximity labelling
T3 sequence: T2 sequence

[7] = molecular target: 3xFLAG-V5-GFP-dZfc3h1 (Drosophila melanogaster (endogenous in OSCs and ovaries)) (UniProt Q9W238); experiment: affinity purification with mass spectrometry
[8] = molecular target: T4, FLAG-Maelstrom (Drosophila melanogaster) (UniProt Q9VNS0); experiment: affinity purification with mass spectrometry
T4 sequence: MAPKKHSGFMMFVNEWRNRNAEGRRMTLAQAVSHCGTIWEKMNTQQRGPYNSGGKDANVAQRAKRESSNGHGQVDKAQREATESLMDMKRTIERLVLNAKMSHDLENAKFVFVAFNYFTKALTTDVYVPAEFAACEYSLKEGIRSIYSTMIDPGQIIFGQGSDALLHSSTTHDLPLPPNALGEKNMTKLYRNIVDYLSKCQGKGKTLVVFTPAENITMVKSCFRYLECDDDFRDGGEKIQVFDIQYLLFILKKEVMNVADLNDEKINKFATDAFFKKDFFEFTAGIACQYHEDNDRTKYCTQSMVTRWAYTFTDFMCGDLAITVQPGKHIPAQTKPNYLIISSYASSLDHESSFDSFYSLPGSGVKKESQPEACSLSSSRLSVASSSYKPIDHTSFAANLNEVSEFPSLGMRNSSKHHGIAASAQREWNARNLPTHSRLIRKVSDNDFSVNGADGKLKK

[9] = molecular target: FLAG-Asterix/Gtsf1 (Drosophila melanogaster) (UniProt Q8SWX0); experiment: affinity purification with mass spectrometry
[10] = molecular target: 3xFLAG-V5-GFP-dZfc3h1 (Drosophila melanogaster (endogenous in OSCs and ovaries)) (UniProt Q9W238); experiment: affinity purification with mass spectrometry; remark: listed apart in the source
[11] = molecular target: His10-FLAG-GFP-3C-V5 fused TEsup-1 PRD (aa 702-820) (Drosophila melanogaster) (UniProt Q9VBX4); experiment: affinity purification with mass spectrometry

Measured: binding

Asterix/Gtsf1 (from UniProt Q8SWX0)
binds: [1] | [2] | [3] | [4] | [5] | [6]

NEXT-specific RNA-binding protein dRbm7 (CG11454) (from UniProt Q9VPK4)
binds: [2]

RNA helicase Mtr4 (enzyme)
binds: [2]

Sov (from UniProt Q9W3W6)
binds: [3] | [5]

TEs are up-1 (TEsup-1; CG31510) (from UniProt Q9VBX4)
binds: [1] | [2] | [7] | [8] | [4] | [9] | [10] | [6]

dZcchc7 (from UniProt Q9VVA9)
binds: [1] | [3] | [11] | [4] | [5] | [6]

dZfc3h1 (CG4294) (from UniProt Q9W238)
binds: [1] | [3] | [11] | [4] | [5] | [6]
